# Reference: the supplement of paper PMC8728848
# Some of the results follow.
# B1: pTFF2 (Sus scrofa), P01359 (protein)
# chain: KPAACRCSRQDPKNRVNCGFPGITSDQCFTSGCCFDSQVPGVPWCFKPLPAQESEECVMEVSARKNCGYPGISPEDCAARNCCFSDTIPEVPWCFFPMSVEACHY
# How the values were obtained:
# Assay in all cases: glycan array binding signal (z-score within array); higher = stronger binding
# Details in all cases: glycan notation: IUPAC condensed, linker removed
# [1] = biological target: GlcNAc(a1-6)Gal(b1-4)GlcNAc
# Procedure, shortened: (§1)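 Negative Z-scores can be read as non-binding. The Z-score is calculated within each array and then averaged across arrays of one protein sequence at different concentrations or buffers and across linkers. Arrays, 3228 in all, were curated from the Consortium for Functional Glycomics database and kept only where the protein sequence was available.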
# [2] = biological target: GlcNAc(b1-2)Gal(b1-3)GalNAc
# Procedure, shortened: as §1
# [3] = biological target: GlcNAc(b1-2)Man(a1-3)[GlcNAc(b1-2)Man(a1-6)]Man(b1-4)GlcNAc(b1-4)GlcNAc
# Procedure, shortened: as §1
# [4] = biological target: GlcNAc(b1-2)Man(a1-3)[GlcNAc(b1-2)Man(a1-6)]Man(b1-4)GlcNAc(b1-4)[Fuc(a1-6)]GlcNAc
# Procedure, shortened: as §1
# [5] = biological target: GlcNAc(b1-2)Man(a1-3)[GlcNAc(b1-4)][GlcNAc(b1-2)Man(a1-6)]Man(b1-4)GlcNAc(b1-4)GlcNAc
# Procedure, shortened: as §1
# [6] = biological target: GlcNAc(b1-2)Man(a1-3)[GlcNAc(b1-4)][GlcNAc(b1-2)Man(a1-6)]Man(b1-4)GlcNAc(b1-4)[Fuc(a1-6)]GlcNAc
# Procedure, shortened: as §1
# [7] = biological target: GlcNAc(b1-2)[GlcNAc(b1-4)]Man(a1-3)[GlcNAc(b1-2)Man(a1-6)]Man(b1-4)GlcNAc(b1-4)GlcNAc
# Procedure, shortened: as §1
# [8] = biological target: GlcNAc(b1-2)[GlcNAc(b1-4)]Man(a1-3)[GlcNAc(b1-4)][GlcNAc(b1-2)Man(a1-6)]Man(b1-4)GlcNAc(b1-4)GlcNAc
# Procedure, shortened: as §1
# [9] = biological target: GlcNAc(b1-2)[GlcNAc(b1-4)]Man(a1-3)[GlcNAc(b1-4)][GlcNAc(b1-2)[GlcNAc(b1-6)]Man(a1-6)]Man(b1-4)GlcNAc(b1-4)GlcNAc
# Procedure, shortened: as §1
# [10] = biological target: GlcNAc(b1-2)[GlcNAc(b1-4)]Man(a1-3)[GlcNAc(b1-4)][GlcNAc(b1-2)[GlcNAc(b1-6)]Man(a1-6)]Man(b1-4)GlcNAc(b1-4)[Fuc(a1-6)]GlcNAc
# Procedure, shortened: as §1
# [11] = biological target: GlcNAc(b1-2)[GlcNAc(b1-6)]Man(a1-6)[GlcNAc(b1-2)Man(a1-3)]Man(b1-4)GlcNAc(b1-4)GlcNAc
# Procedure, shortened: as §1
# [12] = biological target: GlcNAc(b1-2)[GlcNAc(b1-6)]Man(a1-6)[GlcNAc(b1-2)Man(a1-3)]Man(b1-4)GlcNAc(b1-4)[Fuc(a1-6)]GlcNAc
# Procedure, shortened: as §1
# [13] = biological target: GlcNAc(b1-2)[GlcNAc(b1-6)]Man(a1-6)[GlcNAc(b1-4)][GlcNAc(b1-2)Man(a1-3)]Man(b1-4)GlcNAc(b1-4)GlcNAc
# Procedure, shortened: as §1
# [14] = biological target: GlcNAc(b1-3)Fuc
# Procedure, shortened: as §1
# [15] = biological target: GlcNAc(b1-3)Gal
# Procedure, shortened: as §1
# [16] = biological target: GlcNAc(b1-3)Gal(b1-3)GalNAc
# Procedure, shortened: as §1
# [17] = biological target: GlcNAc(b1-3)Gal(b1-4)Glc
# Procedure, shortened: as §1
# [18] = biological target: GlcNAc(b1-3)Gal(b1-4)GlcNAc
# Procedure, shortened: as §1
# [19] = biological target: GlcNAc(b1-3)Gal(b1-4)GlcNAc(b1-2)Man(a1-3)[GlcNAc(b1-3)Gal(b1-4)GlcNAc(b1-2)Man(a1-6)]Man(b1-4)GlcNAc(b1-4)GlcNAc
# Procedure, shortened: as §1
# [20] = biological target: GlcNAc(b1-3)Gal(b1-4)GlcNAc(b1-2)Man(a1-3)[GlcNAc(b1-3)Gal(b1-4)GlcNAc(b1-2)Man(a1-6)]Man(b1-4)GlcNAc(b1-4)[Fuc(a1-6)]GlcNAc
# Procedure, shortened: as §1
# [21] = biological target: GlcNAc(b1-3)Gal(b1-4)GlcNAc(b1-2)[GlcNAc(b1-3)Gal(b1-4)GlcNAc(b1-6)]Man(a1-6)[GlcNAc(b1-3)Gal(b1-4)GlcNAc(b1-2)Man(a1-3)]Man(b1-4)GlcNAc(b1-4)GlcNAc
# Procedure, shortened: as §1
# [22] = biological target: GlcNAc(b1-3)Gal(b1-4)GlcNAc(b1-3)Gal(b1-4)GlcNAc
# Procedure, shortened: as §1
# [23] = biological target: GlcNAc(b1-3)Gal(b1-4)GlcNAc(b1-3)Gal(b1-4)GlcNAc(b1-2)Man(a1-3)[GlcNAc(b1-3)Gal(b1-4)GlcNAc(b1-3)Gal(b1-4)GlcNAc(b1-2)Man(a1-6)]Man(b1-4)GlcNAc(b1-4)GlcNAc
# Procedure, shortened: as §1
# [24] = biological target: GlcNAc(b1-3)Gal(b1-4)GlcNAc(b1-3)Gal(b1-4)GlcNAc(b1-2)Man(a1-3)[GlcNAc(b1-3)Gal(b1-4)GlcNAc(b1-3)Gal(b1-4)GlcNAc(b1-2)Man(a1-6)]Man(b1-4)GlcNAc(b1-4)[Fuc(a1-6)]GlcNAc
# Procedure, shortened: as §1
# [25] = biological target: GlcNAc(b1-3)Gal(b1-4)GlcNAc(b1-3)Gal(b1-4)GlcNAc(b1-2)[GlcNAc(b1-3)Gal(b1-4)GlcNAc(b1-3)Gal(b1-4)GlcNAc(b1-6)]Man(a1-6)[GlcNAc(b1-3)Gal(b1-4)GlcNAc(b1-3)Gal(b1-4)GlcNAc(b1-2)Man(a1-3)]Man(b1-4)GlcNAc(b1-4)[Fuc(a1-6)]GlcNAc
# Procedure, shortened: as §1
# [26] = biological target: GlcNAc(b1-3)Gal(b1-4)GlcNAc(b1-3)Gal(b1-4)GlcNAc(b1-3)Gal(b1-4)GlcNAc(b1-2)Man(a1-3)[GlcNAc(b1-3)Gal(b1-4)GlcNAc(b1-3)Gal(b1-4)GlcNAc(b1-3)Gal(b1-4)GlcNAc(b1-2)Man(a1-6)]Man(b1-4)GlcNAc(b1-4)GlcNAc
# Procedure, shortened: as §1
# [27] = biological target: GlcNAc(b1-3)Gal(b1-4)GlcNAc(b1-3)Gal(b1-4)GlcNAc(b1-3)Gal(b1-4)GlcNAc(b1-2)Man(a1-3)[GlcNAc(b1-3)Gal(b1-4)GlcNAc(b1-3)Gal(b1-4)GlcNAc(b1-3)Gal(b1-4)GlcNAc(b1-2)Man(a1-6)]Man(b1-4)GlcNAc(b1-4)[Fuc(a1-6)]GlcNAc
# Procedure, shortened: as §1
# [28] = biological target: GlcNAc(b1-3)Gal(b1-4)GlcNAc(b1-3)Gal(b1-4)GlcNAc(b1-3)Gal(b1-4)GlcNAc(b1-2)[GlcNAc(b1-3)Gal(b1-4)GlcNAc(b1-3)Gal(b1-4)GlcNAc(b1-3)Gal(b1-4)GlcNAc(b1-6)]Man(a1-6)[GlcNAc(b1-3)Gal(b1-4)GlcNAc(b1-3)Gal(b1-4)GlcNAc(b1-3)Gal(b1-4)GlcNAc(b1-2)Man(a1-3)]Man(b1-4)GlcNAc(b1-4)[Fuc(a1-6)]GlcNAc
# Procedure, shortened: as §1
# [29] = biological target: GlcNAc(b1-3)Gal(b1-4)GlcNAc(b1-3)Gal(b1-4)GlcNAc(b1-3)Gal(b1-4)GlcNAc(b1-3)Gal(b1-4)GlcNAc(b1-2)Man(a1-3)[GlcNAc(b1-3)Gal(b1-4)GlcNAc(b1-3)Gal(b1-4)GlcNAc(b1-3)Gal(b1-4)GlcNAc(b1-3)Gal(b1-4)GlcNAc(b1-2)Man(a1-6)]Man(b1-4)GlcNAc(b1-4)GlcNAc
# Procedure, shortened: as §1
# [30] = biological target: GlcNAc(b1-3)Gal(b1-4)GlcNAc(b1-3)Gal(b1-4)GlcNAc(b1-3)Gal(b1-4)GlcNAc(b1-3)Gal(b1-4)GlcNAc(b1-2)Man(a1-3)[GlcNAc(b1-3)Gal(b1-4)GlcNAc(b1-3)Gal(b1-4)GlcNAc(b1-3)Gal(b1-4)GlcNAc(b1-3)Gal(b1-4)GlcNAc(b1-2)Man(a1-6)]Man(b1-4)GlcNAc(b1-4)[Fuc(a1-6)]GlcNAc
# Procedure, shortened: as §1
# [31] = biological target: GlcNAc(b1-3)Gal(b1-4)GlcNAc(b1-3)Gal(b1-4)GlcNAc(b1-3)Gal(b1-4)GlcNAc(b1-3)Gal(b1-4)GlcNAc(b1-2)[GlcNAc(b1-3)Gal(b1-4)GlcNAc(b1-3)Gal(b1-4)GlcNAc(b1-3)Gal(b1-4)GlcNAc(b1-3)Gal(b1-4)GlcNAc(b1-6)]Man(a1-6)[GlcNAc(b1-3)Gal(b1-4)GlcNAc(b1-3)Gal(b1-4)GlcNAc(b1-3)Gal(b1-4)GlcNAc(b1-3)Gal(b1-4)GlcNAc(b1-2)Man(a1-3)]Man(b1-4)GlcNAc(b1-4)[Fuc(a1-6)]GlcNAc
# Procedure, shortened: as §1
# [32] = biological target: GlcNAc(b1-3)Gal(b1-4)GlcNAc(b1-3)Gal(b1-4)GlcNAc(b1-3)GalNAc
# Procedure, shortened: as §1
# [33] = biological target: GlcNAc(b1-3)Gal(b1-4)GlcNAc(b1-3)GalNAc
# Procedure, shortened: as §1
# [34] = biological target: GlcNAc(b1-3)Gal(b1-4)GlcNAc(b1-3)[GlcNAc(b1-3)Gal(b1-4)GlcNAc(b1-3)]GalNAc
# Procedure, shortened: as §1
# [35] = biological target: GlcNAc(b1-3)Gal(b1-4)GlcNAc(b1-6)[Gal(b1-3)]GalNAc
# Procedure, shortened: as §1
# [36] = biological target: GlcNAc(b1-3)Gal(b1-4)GlcNAc(b1-6)[GlcNAc(b1-3)Gal(b1-3)]GalNAc
# Procedure, shortened: as §1
# [37] = biological target: GlcNAc(b1-3)Gal(b1-4)GlcNAc(b1-6)[GlcNAc(b1-3)]Gal(b1-4)GlcNAc
# Procedure, shortened: as §1
# [38] = biological target: GlcNAc(b1-3)GalNAc
# Procedure, shortened: as §1
# [39] = biological target: GlcNAc(b1-3)Man
# Procedure, shortened: as §1
# [40] = biological target: GlcNAc(b1-3)[GlcNAc(b1-4)][GlcNAc(b1-6)]GlcNAc
# Procedure, shortened: as §1
# [41] = biological target: GlcNAc(b1-3)[GlcNAc(b1-6)]Gal(b1-4)GlcNAc
# Procedure, shortened: as §1
# [42] = biological target: GlcNAc(b1-3)[GlcNAc(b1-6)]GalNAc
# Procedure, shortened: as §1
# [43] = biological target: GlcNAc(b1-4)Gal(b1-4)GlcNAc
# Procedure, shortened: as §1
# [44] = biological target: GlcNAc(b1-4)GlcNAc
# Procedure, shortened: as §1
# [45] = biological target: GlcNAc(b1-4)GlcNAc(b1-4)GlcNAc
# Procedure, shortened: as §1
binder,measurement,setting,value
B1,glycan array binding signal (z-score),[1],-0.043
same,glycan array binding signal (z-score),[2],0.194
same,glycan array binding signal (z-score),[3],-0.161
same,glycan array binding signal (z-score),[4],-1.4
same,glycan array binding signal (z-score),[5],0.002
same,glycan array binding signal (z-score),[6],-1.66
same,glycan array binding signal (z-score),[7],-0.501
same,glycan array binding signal (z-score),[8],-0.215
same,glycan array binding signal (z-score),[9],-0.768
same,glycan array binding signal (z-score),[10],-0.986
same,glycan array binding signal (z-score),[11],-0.207
same,glycan array binding signal (z-score),[12],-0.059
same,glycan array binding signal (z-score),[13],0.104
same,glycan array binding signal (z-score),[14],0.291
same,glycan array binding signal (z-score),[15],1.27
same,glycan array binding signal (z-score),[16],0.04
same,glycan array binding signal (z-score),[17],-0.368
same,glycan array binding signal (z-score),[18],-0.194
same,glycan array binding signal (z-score),[19],-0.834
same,glycan array binding signal (z-score),[20],-0.454
same,glycan array binding signal (z-score),[21],0.197
same,glycan array binding signal (z-score),[22],-1.26
same,glycan array binding signal (z-score),[23],0.928
same,glycan array binding signal (z-score),[24],0.168
same,glycan array binding signal (z-score),[25],1.53
same,glycan array binding signal (z-score),[26],-0.212
same,glycan array binding signal (z-score),[27],0.686
same,glycan array binding signal (z-score),[28],0.559
same,glycan array binding signal (z-score),[29],-0.223
same,glycan array binding signal (z-score),[30],4.15
same,glycan array binding signal (z-score),[31],0.97
same,glycan array binding signal (z-score),[32],-1.25
same,glycan array binding signal (z-score),[33],3.21
same,glycan array binding signal (z-score),[34],1.85
same,glycan array binding signal (z-score),[35],0.277
same,glycan array binding signal (z-score),[36],-0.295
same,glycan array binding signal (z-score),[37],-0.954
same,glycan array binding signal (z-score),[38],-0.56
same,glycan array binding signal (z-score),[39],0.176
same,glycan array binding signal (z-score),[40],0.277
same,glycan array binding signal (z-score),[41],1.01
same,glycan array binding signal (z-score),[42],-0.497
same,glycan array binding signal (z-score),[43],-1.05
same,glycan array binding signal (z-score),[44],0.562
same,glycan array binding signal (z-score),[45],-0.935

# Fetched one by one from the entries so far, 3 records:
binder,measurement,setting,value
B1,glycan array binding signal (z-score),[43],-1.05
same,glycan array binding signal (z-score),[30],4.15
same,glycan array binding signal (z-score),[45],-0.935
